Laboratory results taken from publication PMC11111765.

Molecular target: T1, BTG3 of the co-IP with GFP-TRIM65 and its deletion mutants (UniProt Q14201)
T1 sequence: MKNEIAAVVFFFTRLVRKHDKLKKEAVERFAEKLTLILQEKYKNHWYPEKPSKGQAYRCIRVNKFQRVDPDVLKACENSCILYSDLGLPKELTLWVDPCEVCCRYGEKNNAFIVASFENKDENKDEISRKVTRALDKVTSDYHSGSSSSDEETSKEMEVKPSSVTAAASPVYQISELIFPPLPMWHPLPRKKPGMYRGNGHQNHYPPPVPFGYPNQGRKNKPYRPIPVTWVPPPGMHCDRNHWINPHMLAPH
Test: co-IP; GFP-TRIM65 and its deletion mutants with BTG3, following MG132 treatment; cell line not stated

Question: How did the binding turn out when “GFP-SPRY (SPRY domain of TRIM65) (human) (domain or fragment)” was run?
Answer: The binding was “binds”.

These are yes or no findings as the source states them, for the method shown. In cells and extracts the contact can be indirect. Binding can be weak; no strength is given. Tags and fused reporters may be left off the sequences shown.
